Patent US20160177307
Construct, isoform or probe ends are uncertain for at least one entry. For some of these results: A negative result means that nothing was seen under these conditions.

Chains of the proteins cited; added tags and fusions are not shown. A line that says so, or that is headed by a name, gives the form on record, which may keep a tag or linker. Residues count along the entry.
UniProt P01127, 82-190: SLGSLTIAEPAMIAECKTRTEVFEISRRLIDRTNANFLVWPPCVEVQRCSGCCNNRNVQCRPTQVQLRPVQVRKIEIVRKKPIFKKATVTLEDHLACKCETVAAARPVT
VEGF-165 (Homo sapiens), one chain, as listed by the source: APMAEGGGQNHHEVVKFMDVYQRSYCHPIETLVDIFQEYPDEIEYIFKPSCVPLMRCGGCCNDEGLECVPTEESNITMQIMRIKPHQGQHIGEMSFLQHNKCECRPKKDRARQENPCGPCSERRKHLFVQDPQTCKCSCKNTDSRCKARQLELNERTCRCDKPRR
VEGF-121 (Homo sapiens), one chain, as listed by the source: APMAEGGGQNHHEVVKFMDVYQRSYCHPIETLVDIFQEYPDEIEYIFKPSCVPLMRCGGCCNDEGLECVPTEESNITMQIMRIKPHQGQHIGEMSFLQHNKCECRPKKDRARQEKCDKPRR

Key:
[1] = biological target: PDGF-BB (platelet-derived growth factor BB) (Homo sapiens) (UniProt P01127); assay: activity in cells; conditions: BndU, PDGFRb phosphorylation, Hs27, purified recombinant protein, single-stranded DNA
VEGF-121 (Homo sapiens) = assay: filter binding; conditions: BndU at 1,8,16,17,20; MBndU at 2; Heg at 5; C3 at 11; 2'-OMe at A3,C12,A19,A21,G24 and 2'-OMe-BnU at 7,18; NB, specificity control; purified recombinant …; protein details: R&D Systems; label: 5'-32P; single-stranded DNA; variant of 4149-8_38
VEGF-165 (Homo sapiens) = assay: filter binding; conditions: BndU at 1,8,16,17,20; MBndU at 2; Heg at 5; C3 at 11; 2'-OMe at A3,C12,A19,A21,G24 and 2'-OMe-BnU at 7,18; NB, specificity control; purified recombinant …; label: 5'-32P; single-stranded DNA; variant of 4149-8_38

| Sequence | IC50 ([1]; PDGF_379-3Heg-VEGF_192, NapdU, MBndU, 2'-OMe) | binding result (VEGF-121 (Homo sapiens)) | binding result (VEGF-165 (Homo sapiens)) | IC50 ([1]; MBndU 2, 2'-OMe 3,7,12,18,19,21,24, Heg 5, C3 11) |
| --- | --- | --- | --- | --- |
| TTACGTTACCGCGTTTATAGCGCCGTTCAAGTGCTTGTAGGATTTAAATGG [4149-8_401] | 2.4 nM |  |  |  |
| TTACGTTACCGCGTTTATAGCG [4149-8_379] |  | no binding | no binding | 1.6 nM |
